# Laboratory results from the supplement of paper PMC10849652.
# Protein sequences, listed by entry. Tags and fused reporters are not part of them. Lines headed by an entry give the natural chain unless they say otherwise; changes in a name come on top.
# UniProt P07954: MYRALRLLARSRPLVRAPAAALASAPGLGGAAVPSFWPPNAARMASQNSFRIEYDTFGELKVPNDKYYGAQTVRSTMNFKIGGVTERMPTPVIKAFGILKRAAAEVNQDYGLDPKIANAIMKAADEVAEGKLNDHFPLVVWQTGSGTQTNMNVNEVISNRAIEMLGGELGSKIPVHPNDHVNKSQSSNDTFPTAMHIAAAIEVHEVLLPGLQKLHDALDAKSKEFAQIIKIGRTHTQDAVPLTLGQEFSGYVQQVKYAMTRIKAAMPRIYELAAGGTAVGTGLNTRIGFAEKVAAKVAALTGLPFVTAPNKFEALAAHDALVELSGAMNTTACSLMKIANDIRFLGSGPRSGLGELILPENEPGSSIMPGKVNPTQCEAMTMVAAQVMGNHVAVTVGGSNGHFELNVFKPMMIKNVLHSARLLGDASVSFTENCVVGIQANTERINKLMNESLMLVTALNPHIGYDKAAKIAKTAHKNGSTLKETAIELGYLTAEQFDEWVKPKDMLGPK
# UniProt Q02790: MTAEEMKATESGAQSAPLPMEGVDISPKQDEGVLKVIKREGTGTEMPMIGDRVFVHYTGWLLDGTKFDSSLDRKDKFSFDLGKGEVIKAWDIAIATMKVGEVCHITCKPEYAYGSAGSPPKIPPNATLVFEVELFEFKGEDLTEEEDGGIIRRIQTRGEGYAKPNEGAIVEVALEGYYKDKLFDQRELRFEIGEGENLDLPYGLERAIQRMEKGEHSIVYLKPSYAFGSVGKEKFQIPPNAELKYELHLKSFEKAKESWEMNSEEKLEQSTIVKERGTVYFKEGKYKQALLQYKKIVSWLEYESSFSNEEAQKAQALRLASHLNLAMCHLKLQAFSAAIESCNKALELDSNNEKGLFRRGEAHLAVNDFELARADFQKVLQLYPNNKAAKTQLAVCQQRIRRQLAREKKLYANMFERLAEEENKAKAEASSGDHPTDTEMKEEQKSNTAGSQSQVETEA
# UniProt P12318: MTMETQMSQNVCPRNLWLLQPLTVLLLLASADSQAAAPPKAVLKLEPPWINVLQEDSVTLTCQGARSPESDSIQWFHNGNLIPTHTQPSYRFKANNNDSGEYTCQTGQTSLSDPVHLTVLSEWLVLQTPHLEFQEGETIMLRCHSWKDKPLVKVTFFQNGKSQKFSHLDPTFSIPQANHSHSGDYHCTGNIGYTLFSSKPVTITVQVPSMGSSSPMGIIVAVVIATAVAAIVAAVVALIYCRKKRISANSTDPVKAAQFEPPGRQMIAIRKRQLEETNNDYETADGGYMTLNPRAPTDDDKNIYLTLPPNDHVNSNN
# UniProt Q53R41: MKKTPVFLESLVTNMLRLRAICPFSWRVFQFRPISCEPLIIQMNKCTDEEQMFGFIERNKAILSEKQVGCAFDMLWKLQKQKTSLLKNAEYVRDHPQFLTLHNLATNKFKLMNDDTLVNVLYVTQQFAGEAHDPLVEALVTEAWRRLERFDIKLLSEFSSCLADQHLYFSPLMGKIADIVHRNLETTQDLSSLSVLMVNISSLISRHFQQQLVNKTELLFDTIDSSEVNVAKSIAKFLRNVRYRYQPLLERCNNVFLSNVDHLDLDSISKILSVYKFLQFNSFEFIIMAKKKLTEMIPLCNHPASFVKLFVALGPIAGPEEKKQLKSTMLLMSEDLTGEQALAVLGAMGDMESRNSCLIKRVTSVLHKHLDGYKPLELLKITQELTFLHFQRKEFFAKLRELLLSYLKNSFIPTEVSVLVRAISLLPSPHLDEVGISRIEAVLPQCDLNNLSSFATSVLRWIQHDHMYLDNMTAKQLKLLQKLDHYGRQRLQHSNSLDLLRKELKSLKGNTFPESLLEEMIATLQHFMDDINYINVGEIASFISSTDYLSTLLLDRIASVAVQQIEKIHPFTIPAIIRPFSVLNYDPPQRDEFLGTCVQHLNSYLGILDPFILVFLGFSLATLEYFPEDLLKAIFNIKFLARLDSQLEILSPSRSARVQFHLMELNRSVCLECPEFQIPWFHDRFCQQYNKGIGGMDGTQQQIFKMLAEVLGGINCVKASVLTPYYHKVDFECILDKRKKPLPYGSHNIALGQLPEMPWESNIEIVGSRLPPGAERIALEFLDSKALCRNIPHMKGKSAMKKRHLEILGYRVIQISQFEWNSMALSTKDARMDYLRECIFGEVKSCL
# UniProt Q8N6M3: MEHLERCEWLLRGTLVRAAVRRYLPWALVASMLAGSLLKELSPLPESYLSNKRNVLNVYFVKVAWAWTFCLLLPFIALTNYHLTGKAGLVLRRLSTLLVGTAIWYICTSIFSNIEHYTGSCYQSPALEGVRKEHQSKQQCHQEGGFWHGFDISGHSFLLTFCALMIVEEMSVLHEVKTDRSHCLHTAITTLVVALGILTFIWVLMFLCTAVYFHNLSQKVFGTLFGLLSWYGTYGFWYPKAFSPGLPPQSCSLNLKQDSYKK
# UniProt Q96IV6: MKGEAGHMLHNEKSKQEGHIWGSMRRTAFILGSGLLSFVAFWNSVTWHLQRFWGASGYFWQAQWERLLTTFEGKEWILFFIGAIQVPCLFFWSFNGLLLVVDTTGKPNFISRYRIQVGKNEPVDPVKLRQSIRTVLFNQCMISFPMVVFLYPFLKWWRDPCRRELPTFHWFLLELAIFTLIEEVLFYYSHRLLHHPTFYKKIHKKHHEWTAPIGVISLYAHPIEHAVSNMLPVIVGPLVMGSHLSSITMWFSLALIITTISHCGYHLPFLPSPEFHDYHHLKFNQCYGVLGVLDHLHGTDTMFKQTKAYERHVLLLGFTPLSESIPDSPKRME
# UniProt Q96AC1: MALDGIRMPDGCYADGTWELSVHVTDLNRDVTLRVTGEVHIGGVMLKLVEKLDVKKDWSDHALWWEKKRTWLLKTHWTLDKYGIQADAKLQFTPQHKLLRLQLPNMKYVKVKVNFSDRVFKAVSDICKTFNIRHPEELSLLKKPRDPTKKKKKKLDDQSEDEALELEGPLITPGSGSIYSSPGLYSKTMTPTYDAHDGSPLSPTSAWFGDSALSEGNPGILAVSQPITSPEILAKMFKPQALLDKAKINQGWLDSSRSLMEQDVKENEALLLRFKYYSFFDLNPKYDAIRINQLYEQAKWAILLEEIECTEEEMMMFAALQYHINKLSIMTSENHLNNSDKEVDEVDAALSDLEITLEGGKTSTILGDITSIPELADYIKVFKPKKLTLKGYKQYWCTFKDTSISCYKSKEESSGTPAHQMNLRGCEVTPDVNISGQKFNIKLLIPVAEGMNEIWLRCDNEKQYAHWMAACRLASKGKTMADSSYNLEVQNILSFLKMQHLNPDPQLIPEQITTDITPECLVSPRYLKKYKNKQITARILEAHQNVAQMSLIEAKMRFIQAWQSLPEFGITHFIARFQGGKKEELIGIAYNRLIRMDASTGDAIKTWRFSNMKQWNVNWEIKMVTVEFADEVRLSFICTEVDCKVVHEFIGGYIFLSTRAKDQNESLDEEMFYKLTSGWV
# UniProt Q96C11: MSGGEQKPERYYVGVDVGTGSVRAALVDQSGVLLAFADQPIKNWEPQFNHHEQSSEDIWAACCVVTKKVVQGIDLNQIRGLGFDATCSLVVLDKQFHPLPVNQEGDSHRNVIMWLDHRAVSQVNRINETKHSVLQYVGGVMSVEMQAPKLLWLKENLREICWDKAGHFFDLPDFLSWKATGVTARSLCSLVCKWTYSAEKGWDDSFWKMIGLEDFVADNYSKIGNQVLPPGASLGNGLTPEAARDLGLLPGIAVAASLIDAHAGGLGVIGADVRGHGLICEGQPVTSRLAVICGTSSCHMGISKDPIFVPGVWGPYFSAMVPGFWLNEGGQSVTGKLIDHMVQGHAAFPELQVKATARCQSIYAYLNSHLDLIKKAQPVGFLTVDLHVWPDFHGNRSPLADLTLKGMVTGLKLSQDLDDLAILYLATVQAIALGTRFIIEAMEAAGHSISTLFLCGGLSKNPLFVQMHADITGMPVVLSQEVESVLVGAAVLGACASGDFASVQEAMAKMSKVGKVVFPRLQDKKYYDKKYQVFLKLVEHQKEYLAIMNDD
# UniProt Q9NVK5: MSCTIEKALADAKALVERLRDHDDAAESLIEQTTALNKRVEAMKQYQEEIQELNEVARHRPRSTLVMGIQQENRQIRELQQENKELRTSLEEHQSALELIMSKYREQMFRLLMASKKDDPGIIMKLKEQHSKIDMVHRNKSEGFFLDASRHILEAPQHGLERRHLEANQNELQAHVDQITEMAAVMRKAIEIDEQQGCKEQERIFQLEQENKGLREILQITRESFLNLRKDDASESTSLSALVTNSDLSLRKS
# UniProt Q13642: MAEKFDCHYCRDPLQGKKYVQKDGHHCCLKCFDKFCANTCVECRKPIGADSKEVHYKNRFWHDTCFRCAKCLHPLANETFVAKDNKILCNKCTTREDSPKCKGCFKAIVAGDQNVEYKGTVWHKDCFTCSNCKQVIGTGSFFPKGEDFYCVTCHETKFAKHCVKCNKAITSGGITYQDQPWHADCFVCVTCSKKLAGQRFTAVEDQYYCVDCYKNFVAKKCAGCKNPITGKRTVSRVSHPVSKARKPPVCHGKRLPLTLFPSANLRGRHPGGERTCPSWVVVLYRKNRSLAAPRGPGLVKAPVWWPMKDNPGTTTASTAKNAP
# The list shows a part of the results.
# Key:
# Assay in all cases: log2 fold change, soluble protein after heating vs DMSO (PISA); higher = thermal stabilisation; K562 cells, 10 uM, 30 min; active = over 0.2 and 3.5 SD of the protein, either way, in both replicates (recomputed)
# [1] = compound: Cc1ccc(NC(=O)c2ccc(CN3CC[C@H](N(C)C)C3)c(C(F)(F)F)c2)cc1Nc1nccc(-c2cncnc2)n1 [bafetinib]
# How it was run: (§1)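 Quantification of soluble protein used TMTpro 16plex LC-MS/MS, with channel sums equalised. Samples were the supernatant after 21,000xg for 90 min of pooled aliquots from K562 cells (2×10^6 cells/mL) treated with 10 μM compound for 30 min, heated for 3 min over 48°C-58°C, and extracted in PBS with 0.5% NP-40 at 4°C. Values, from duplicates, describe thermal stability against control samples on a log2 fold-change scale.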
# [2] = compound: Cc1cccc(CC(=O)N2CCc3c2ccc(-c2cn(C)c4ncnc(N)c24)c3F)n1
# How it was run: as §1
# [3] = compound: Cc1cn(-c2cc(NC(=O)c3ccc(C)c(Nc4nccc(-c5cccnc5)n4)c3)cc(C(F)(F)F)c2)cn1 [nilotinib]
# How it was run: as §1
# [4] = compound: Cc1nc(Nc2n[nH]c3c2CN(C(=O)N[C@H](CN(C)C)c2ccccc2)C3(C)C)c2sccc2n1
# How it was run: as §1
# [5] = compound: Cc1nc(Nc2ncc(C(=O)Nc3c(C)cccc3Cl)s2)cc(N2CCN(CCO)CC2)n1 [dasatinib]
# How it was run: as §1
# [6] = compound: Cc1ncc(-c2ccnc(Nc3ccc(S(C)(=O)=O)cc3)n2)n1C(C)C
# How it was run: as §1
# [7] = compound: Cn1cc(-c2ccc3c(c2)CCN3C(=O)Cc2cccc(C(F)(F)F)c2)c2c(N)ncnc21
# How it was run: as §1
# [8] = compound: Cn1cc(-c2ccc3nnc(C(F)(F)c4ccc5ncccc5c4)n3n2)cn1
# How it was run: as §1
# [9] = compound: Cn1cncc1[C@@](N)(c1ccc(Cl)cc1)c1ccc2c(c1)c(-c1cccc(Cl)c1)cc(=O)n2C [tipifarnib]
# How it was run: as §1
# [10] = compound: FC(F)(F)c1ccc(/C=C/c2nc(COc3ccc(CCCCn4ccnn4)cc3)co2)cc1 [mubritinib]
# How it was run: as §1
# [11] = compound: NC(=O)Nc1cc(-c2cccc(F)c2)sc1C(=O)N[C@H]1CCCNC1
# How it was run: as §1
# [12] = compound: NC(=O)c1cnc(N[C@@H]2CCCC[C@@H]2N)nc1Nc1cccc(-n2nccn2)c1
# How it was run: as §1
# [13] = compound: NC1(c2ccc(-c3nc4ccn5c(=O)[nH]nc5c4cc3-c3ccccc3)cc2)CCC1
# How it was run: as §1
# [14] = compound: NCC(=O)Nc1ccc(-n2nc(C(F)(F)F)cc2-c2ccc3c(ccc4ccccc43)c2)cc1
# How it was run: as §1
# [15] = compound: Nc1ccccc1NC(=O)c1ccc(CNC(=O)OCc2cccnc2)cc1 [entinostat]
# How it was run: as §1
# [16] = compound: O=C(CCCCCCC(=O)Nc1ccccc1)NO [vorinostat]
# How it was run: as §1
# [17] = compound: O=C(CCCCCCNC(=O)c1cnc(N(c2ccccc2)c2ccccc2Cl)nc1)NO [citarinostat]
# How it was run: as §1
# [18] = compound: O=C(O)c1ccc2c(c1)nc(Nc1cccc(Cl)c1)c1ccncc12 [silmitasertib]
# How it was run: as §1
# [19] = compound: O=C1NC(=O)C(c2cnc3ccccn23)=C1c1cn2c3c(cc(F)cc13)CN(C(=O)N1CCCCC1)CC2
# How it was run: as §1
# [20] = compound: c1cc(OCCN2CCCCC2)cc(-c2n[nH]c3ccc(-c4nnc[nH]4)cc23)c1
# How it was run: as §1
Target,log2 fold change [1],log2 fold change [2],log2 fold change [3],log2 fold change [4],log2 fold change [5],log2 fold change [6],log2 fold change [7],log2 fold change [8],log2 fold change [9],log2 fold change [10],log2 fold change [11],log2 fold change [12],log2 fold change [13],log2 fold change [14],log2 fold change [15],log2 fold change [16],log2 fold change [17],log2 fold change [18],log2 fold change [19],log2 fold change [20]
FH (UniProt P07954),inactive: -0.005,inactive: 0.002,inactive: 0.071,inactive: 0.025,inactive: -0.079,inactive: -0.06,inactive: 0.063,inactive: 0.016,inactive: -0.036,inactive: 0.136,inactive: -0.016,inactive: -0.022,inactive: -0.071,inactive: -0.01,inactive: -0.016,inactive: -0.013,inactive: -0.001,inactive: -0.015,inactive: -0.019,inactive: -0.033
FKBP4 (UniProt Q02790),inactive: -0.014,inactive: 0.017,inactive: -0.05,inactive: -0.011,inactive: -0.114,inactive: 0.024,inactive: 0.033,inactive: -0.002,inactive: -0.092,inactive: 0.012,inactive: 0.005,inactive: -0.071,inactive: -0.114,inactive: -0.053,inactive: 0.039,inactive: 0.035,inactive: 0.072,inactive: 0.01,inactive: -0.02,inactive: -0.029
FCGR2A (UniProt P12318),inactive: 0.152,inactive: -0.061,inactive: -0.034,inactive: -0.053,inactive: -0.014,inactive: 0.059,–,inactive: -0.039,inactive: 0.018,inactive: 0.031,inactive: -0.008,inactive: -0.113,inactive: 0.099,inactive: -0.052,inactive: -0.002,inactive: -0.103,inactive: -0.029,inactive: -0.045,inactive: 0.137,inactive: -0.1
FASTKD1 (UniProt Q53R41),inactive: 0.098,inactive: -0.021,inactive: -0.183,active: 0.54,inactive: -0.168,inactive: -0.053,inactive: 0.217,inactive: -0.064,–,–,inactive: 0.046,inactive: -0.014,–,inactive: 0.033,inactive: -0.019,inactive: 0.018,inactive: -0.055,–,inactive: -0.12,inactive: 0.046
FITM2 (UniProt Q8N6M3),inactive: -0.114,–,inactive: 0.073,inactive: 0.07,–,inactive: 0.211,–,–,–,inactive: 0.08,–,–,inactive: 0.053,–,–,–,inactive: 0.132,inactive: -0.042,–,inactive: -0.031
FAXDC2 (UniProt Q96IV6),inactive: -0.129,–,inactive: -0.017,inactive: -0.036,–,inactive: 0.096,–,–,–,–,–,–,–,–,–,–,–,–,–,–
FERMT2 isoform 3 (UniProt Q96AC1),inactive: -0.13,inactive: 0.061,inactive: 0.016,inactive: -0.077,inactive: 0.2,inactive: -0.069,inactive: -0.05,inactive: -0.088,inactive: 0.032,inactive: 0.094,inactive: 0.126,–,inactive: 0.291,–,inactive: -0.048,inactive: -0.226,–,inactive: 0.133,inactive: 0.018,–
FGGY isoform 3 (UniProt Q96C11),inactive: 0.024,inactive: 0.115,–,–,inactive: -0.03,–,inactive: 0.032,inactive: -0.042,inactive: 0.104,inactive: 0.195,–,inactive: 0.048,inactive: -0.038,inactive: 0.116,–,inactive: -0.017,–,inactive: -0.269,inactive: -0.062,–
FGFR1OP2 (UniProt Q9NVK5),inactive: -0.052,inactive: 0.037,inactive: 0.037,inactive: 0.04,inactive: -0.077,inactive: -0.121,inactive: -0.007,–,–,inactive: -0.072,–,inactive: 0.01,inactive: -0.067,inactive: 0.076,–,inactive: 0.025,–,inactive: 0.067,inactive: 0.044,–
FHL1 isoform 4 (UniProt Q13642),inactive: -0.03,–,inactive: -0.021,inactive: 0.205,inactive: 0.143,inactive: 0.025,inactive: 0,–,inactive: 0.068,–,inactive: -0.083,inactive: -0.28,–,inactive: -0.13,inactive: -0.139,–,–,–,inactive: 0.044,–

# Nothing new here: an excerpt of the list.
Target,log2 fold change [1],log2 fold change [2],log2 fold change [3],log2 fold change [4],log2 fold change [5],log2 fold change [6],log2 fold change [7],log2 fold change [8],log2 fold change [9],log2 fold change [10],log2 fold change [11],log2 fold change [12],log2 fold change [13],log2 fold change [14],log2 fold change [15],log2 fold change [16],log2 fold change [17],log2 fold change [18],log2 fold change [19],log2 fold change [20]
FAXDC2 (UniProt Q96IV6),inactive: -0.129,–,inactive: -0.017,inactive: -0.036,–,inactive: 0.096,–,–,–,–,–,–,–,–,–,–,–,–,–,–
FERMT2 isoform 3 (UniProt Q96AC1),inactive: -0.13,inactive: 0.061,inactive: 0.016,inactive: -0.077,inactive: 0.2,inactive: -0.069,inactive: -0.05,inactive: -0.088,inactive: 0.032,inactive: 0.094,inactive: 0.126,–,inactive: 0.291,–,inactive: -0.048,inactive: -0.226,–,inactive: 0.133,inactive: 0.018,–
FGGY isoform 3 (UniProt Q96C11),inactive: 0.024,inactive: 0.115,–,–,inactive: -0.03,–,inactive: 0.032,inactive: -0.042,inactive: 0.104,inactive: 0.195,–,inactive: 0.048,inactive: -0.038,inactive: 0.116,–,inactive: -0.017,–,inactive: -0.269,inactive: -0.062,–
